Data as given in PubChem BioAssay AID1224828 (NIAID, 2016)
The whole screen tested about 17,000 reagents; shown is a part drawn at random. In the full data, 762 (4.5%) got an active call. 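Active calls include both raised and lowered p65 entry, mostly lowered; wells with fewer than 50 cells lack a z-score.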 The raw values are shown without normalisation. Reagents against one gene are numbered here.

Aim: 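Regulators linking TLR4 signalling to p65 nuclear translocation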 (primary screen)
Cells: mouse RAW264.7 G9 macrophage reporter cells (GFP-p65, Tnf promoter-mCherry)
Reagents: siRNA pool against mouse genes, 100 nM
Timing: 2 days siRNA transfection, then 40 min LPS before fixation
Challenge: LPS (Salmonella minnesota R595) at 10 ng/ml
Read-out: 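Imaged p65 nuclear translocation ratio, normalised to the plate median, converted to robust z-scores and averaged across two replicates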
Reading the numbers: p65 translocation robust z-score: higher = more nuclear NF-kappaB p65 after LPS than the plate median; nuclear/cytoplasmic p65 ratio: higher = more nuclear NF-kappaB p65
Active means: 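Active if robust z is above 3.3 (negative regulators) or below -1.56, the Tlr4 control median (positive regulators); activity score 50 or more; control wells not called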
Meaning of the calls: active = hit (p65 shift raised or lowered); inactive = no clear change

Silencing of Mast4 came out at: p65 translocation robust z-score 1.09; nuclear/cytoplasmic p65 ratio, rep 1 = 1.73; nuclear/cytoplasmic p65 ratio, rep 2 = 1.82; low cell count flag enough cells to score; inactive.
Depletion of Mrc1 (mannose receptor, C type 1) resulted in: p65 translocation robust z-score 0.19; nuclear/cytoplasmic p65 ratio, rep 1 = 1.51; nuclear/cytoplasmic p65 ratio, rep 2 = 1.33; low cell count flag enough cells to score; inactive.
Against Rac1 (Rac family small GTPase 1), the entry reads p65 translocation robust z-score 0.11; nuclear/cytoplasmic p65 ratio, rep 1 = 1.7; nuclear/cytoplasmic p65 ratio, rep 2 = 1.39; low cell count flag enough cells to score; inactive.
Or2ad1 (olfactory receptor family 2 subfamily AD member 1) showed nuclear/cytoplasmic p65 ratio, rep 1 = 1.32; nuclear/cytoplasmic p65 ratio, rep 2 = 1.12; low cell count flag fewer than 50 cells per well; well left out of scoring; inactive.
Gins4 (GINS complex subunit 4) gave p65 translocation robust z-score -0.04; nuclear/cytoplasmic p65 ratio, rep 1 = 1.31; nuclear/cytoplasmic p65 ratio, rep 2 = 1.54; low cell count flag enough cells to score; inactive.
Ntf3 (neurotrophin 3) gave p65 translocation robust z-score -0.14; nuclear/cytoplasmic p65 ratio, rep 1 = 1.44; nuclear/cytoplasmic p65 ratio, rep 2 = 1.38; low cell count flag enough cells to score; inactive.
For Klhdc7a (kelch domain containing 7A), the entry reads p65 translocation robust z-score -0.33; nuclear/cytoplasmic p65 ratio, rep 1 = 1.47; nuclear/cytoplasmic p65 ratio, rep 2 = 1.55; low cell count flag enough cells to score; inactive.
Knock-down of Speer4b (spermatogenesis associated glutamate (E)-rich protein 4B) gave: p65 translocation robust z-score 0.36; nuclear/cytoplasmic p65 ratio, rep 1 = 1.5; nuclear/cytoplasmic p65 ratio, rep 2 = 1.24; low cell count flag enough cells to score; inactive.
Silencing of C1ra (complement component 1, r subcomponent A) resulted in: p65 translocation robust z-score -0.15; nuclear/cytoplasmic p65 ratio, rep 1 = 1.62; nuclear/cytoplasmic p65 ratio, rep 2 = 1.57; low cell count flag enough cells to score; inactive.
For Mrtfb (myocardin related transcription factor B) #1, the entry reads p65 translocation robust z-score -2.74; nuclear/cytoplasmic p65 ratio, rep 1 = 1.27; nuclear/cytoplasmic p65 ratio, rep 2 = 1.11; low cell count flag enough cells to score; active.
Mrtfb (myocardin related transcription factor B) #2 gave p65 translocation robust z-score 0.3; nuclear/cytoplasmic p65 ratio, rep 1 = 1.5; nuclear/cytoplasmic p65 ratio, rep 2 = 1.37; low cell count flag enough cells to score; inactive.
Knock-down of Nipa1 resulted in: nuclear/cytoplasmic p65 ratio, rep 1 = 1.59; nuclear/cytoplasmic p65 ratio, rep 2 = 1.22; low cell count flag fewer than 50 cells per well; well left out of scoring; inactive.
Topbp1 (topoisomerase (DNA) II binding protein 1) showed p65 translocation robust z-score 0.46; nuclear/cytoplasmic p65 ratio, rep 1 = 1.55; nuclear/cytoplasmic p65 ratio, rep 2 = 1.62; low cell count flag enough cells to score; inactive.
Hsd11b2 (hydroxysteroid 11-beta dehydrogenase 2) gave p65 translocation robust z-score -0.81; nuclear/cytoplasmic p65 ratio, rep 1 = 1.35; nuclear/cytoplasmic p65 ratio, rep 2 = 1.25; low cell count flag enough cells to score; inactive.
For Lce3c (late cornified envelope 3C), the entry reads p65 translocation robust z-score -2.15; nuclear/cytoplasmic p65 ratio, rep 1 = 1.14; nuclear/cytoplasmic p65 ratio, rep 2 = 0.985; low cell count flag enough cells to score; active.
Depletion of Ugcg (UDP-glucose ceramide glucosyltransferase) came out at: p65 translocation robust z-score -0.55; nuclear/cytoplasmic p65 ratio, rep 1 = 1.53; nuclear/cytoplasmic p65 ratio, rep 2 = 1.34; low cell count flag enough cells to score; inactive.
For A330015D16RIK the deposit lists p65 translocation robust z-score 2.66; nuclear/cytoplasmic p65 ratio, rep 1 = 1.59; nuclear/cytoplasmic p65 ratio, rep 2 = 1.9; low cell count flag enough cells to score; inactive.
Lyzl4 (lysozyme-like 4) showed p65 translocation robust z-score -1; nuclear/cytoplasmic p65 ratio, rep 1 = 1.18; nuclear/cytoplasmic p65 ratio, rep 2 = 1.29; low cell count flag enough cells to score; inactive.
For Spred1 (sprouty protein with EVH-1 domain 1, related sequence), the values are p65 translocation robust z-score -0.2; nuclear/cytoplasmic p65 ratio, rep 1 = 1.3; nuclear/cytoplasmic p65 ratio, rep 2 = 1.28; low cell count flag enough cells to score; inactive.
For Chrm3 (cholinergic receptor, muscarinic 3, cardiac), the entry reads p65 translocation robust z-score 0.31; nuclear/cytoplasmic p65 ratio, rep 1 = 1.52; nuclear/cytoplasmic p65 ratio, rep 2 = 1.66; low cell count flag enough cells to score; inactive.
After knock-down of Or8u3 (olfactory receptor family 8 subfamily U member 3), the record shows p65 translocation robust z-score -0.29; nuclear/cytoplasmic p65 ratio, rep 1 = 1.66; nuclear/cytoplasmic p65 ratio, rep 2 = 1.5; low cell count flag enough cells to score; inactive.
Against Tor2a (torsin family 2, member A), the values are p65 translocation robust z-score -0.87; nuclear/cytoplasmic p65 ratio, rep 1 = 1.4; nuclear/cytoplasmic p65 ratio, rep 2 = 1.1; low cell count flag enough cells to score; inactive.
With knock-down of Aff3 (AF4/FMR2 family, member 3), the record shows p65 translocation robust z-score -0.44; nuclear/cytoplasmic p65 ratio, rep 1 = 1.35; nuclear/cytoplasmic p65 ratio, rep 2 = 1.38; low cell count flag enough cells to score; inactive.
For Coq8a (coenzyme Q8A) the deposit lists p65 translocation robust z-score 0.32; nuclear/cytoplasmic p65 ratio, rep 1 = 1.73; nuclear/cytoplasmic p65 ratio, rep 2 = 1.6; low cell count flag enough cells to score; inactive.
For Sox18 (SRY (sex determining region Y)-box 18), the entry reads p65 translocation robust z-score -0.15; nuclear/cytoplasmic p65 ratio, rep 1 = 1.53; nuclear/cytoplasmic p65 ratio, rep 2 = 1.53; low cell count flag enough cells to score; inactive.
Silencing of 2310033P09Rik (RIKEN cDNA 2310033P09 gene) gave: nuclear/cytoplasmic p65 ratio, rep 1 = 1.18; nuclear/cytoplasmic p65 ratio, rep 2 = 1.16; low cell count flag fewer than 50 cells per well; well left out of scoring; inactive.
Against Hexa (hexosaminidase A), the values are p65 translocation robust z-score -1.15; nuclear/cytoplasmic p65 ratio, rep 1 = 1.26; nuclear/cytoplasmic p65 ratio, rep 2 = 1.25; low cell count flag enough cells to score; inactive.

Entries listed so far with an active call, once more:
Mrtfb (myocardin related transcription factor B) #1: p65 translocation robust z-score = -2.74; nuclear/cytoplasmic p65 ratio, rep 1 = 1.27; nuclear/cytoplasmic p65 ratio, rep 2 = 1.11; low cell count flag = enough cells to score; call = active
Lce3c (late cornified envelope 3C): p65 translocation robust z-score = -2.15; nuclear/cytoplasmic p65 ratio, rep 1 = 1.14; nuclear/cytoplasmic p65 ratio, rep 2 = 0.985; low cell count flag = enough cells to score; call = active
